In article PMC12724340:
Results are given in words; binding and its absence hold for the method and conditions named. Binding seen in cells or lysates may run through a third protein. Some results given as binding are weak or reduced against the parent protein; the word gives no strength.

Chains of the proteins cited; added tags and fusions are not shown. Lines headed by an entry give the natural chain unless they say otherwise; changes in a name come on top. A line that says so, or that is headed by a name, gives the form on record, which may keep a tag or linker.
Flag-tagged casein kinase 1 delta isoform CK1δ2 (human (cDNA from 293T cells)) (P48730, form named): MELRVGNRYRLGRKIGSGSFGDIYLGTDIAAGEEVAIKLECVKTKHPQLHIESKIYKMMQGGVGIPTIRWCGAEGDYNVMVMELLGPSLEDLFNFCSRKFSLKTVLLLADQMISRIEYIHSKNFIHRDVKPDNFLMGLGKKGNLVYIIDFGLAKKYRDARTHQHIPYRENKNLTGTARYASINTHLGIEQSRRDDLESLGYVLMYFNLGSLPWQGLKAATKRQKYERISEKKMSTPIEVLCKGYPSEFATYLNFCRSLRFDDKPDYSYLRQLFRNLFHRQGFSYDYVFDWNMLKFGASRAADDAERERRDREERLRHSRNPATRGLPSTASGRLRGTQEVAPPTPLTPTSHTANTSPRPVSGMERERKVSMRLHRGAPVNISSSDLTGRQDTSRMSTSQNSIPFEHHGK
UniProt P49674: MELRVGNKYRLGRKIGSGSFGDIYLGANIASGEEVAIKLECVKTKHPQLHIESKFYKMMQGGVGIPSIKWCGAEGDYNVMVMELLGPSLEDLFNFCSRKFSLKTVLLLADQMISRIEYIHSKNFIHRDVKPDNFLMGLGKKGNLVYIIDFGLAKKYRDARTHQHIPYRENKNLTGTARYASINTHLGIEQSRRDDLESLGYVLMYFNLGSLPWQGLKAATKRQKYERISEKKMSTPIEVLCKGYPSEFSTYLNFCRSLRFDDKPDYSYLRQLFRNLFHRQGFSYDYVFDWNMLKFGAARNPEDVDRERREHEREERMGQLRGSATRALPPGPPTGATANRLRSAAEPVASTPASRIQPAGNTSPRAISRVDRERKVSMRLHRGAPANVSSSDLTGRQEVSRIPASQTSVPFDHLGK
UniProt Q9Y6M1: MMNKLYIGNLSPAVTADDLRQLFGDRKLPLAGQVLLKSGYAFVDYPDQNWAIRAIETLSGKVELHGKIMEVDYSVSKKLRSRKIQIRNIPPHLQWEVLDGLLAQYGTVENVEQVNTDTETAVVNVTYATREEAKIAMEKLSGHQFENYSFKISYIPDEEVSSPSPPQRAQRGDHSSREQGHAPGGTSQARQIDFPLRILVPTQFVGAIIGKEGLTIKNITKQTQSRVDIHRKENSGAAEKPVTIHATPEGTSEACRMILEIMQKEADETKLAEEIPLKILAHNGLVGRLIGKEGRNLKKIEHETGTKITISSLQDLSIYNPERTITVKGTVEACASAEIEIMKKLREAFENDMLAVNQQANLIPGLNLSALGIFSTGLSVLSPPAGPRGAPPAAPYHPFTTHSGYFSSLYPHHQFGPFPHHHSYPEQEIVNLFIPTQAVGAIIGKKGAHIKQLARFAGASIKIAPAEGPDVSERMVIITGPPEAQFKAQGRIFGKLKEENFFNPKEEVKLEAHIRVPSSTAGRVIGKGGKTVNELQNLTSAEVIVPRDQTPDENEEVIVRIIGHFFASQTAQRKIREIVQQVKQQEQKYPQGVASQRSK
UniProt O00425: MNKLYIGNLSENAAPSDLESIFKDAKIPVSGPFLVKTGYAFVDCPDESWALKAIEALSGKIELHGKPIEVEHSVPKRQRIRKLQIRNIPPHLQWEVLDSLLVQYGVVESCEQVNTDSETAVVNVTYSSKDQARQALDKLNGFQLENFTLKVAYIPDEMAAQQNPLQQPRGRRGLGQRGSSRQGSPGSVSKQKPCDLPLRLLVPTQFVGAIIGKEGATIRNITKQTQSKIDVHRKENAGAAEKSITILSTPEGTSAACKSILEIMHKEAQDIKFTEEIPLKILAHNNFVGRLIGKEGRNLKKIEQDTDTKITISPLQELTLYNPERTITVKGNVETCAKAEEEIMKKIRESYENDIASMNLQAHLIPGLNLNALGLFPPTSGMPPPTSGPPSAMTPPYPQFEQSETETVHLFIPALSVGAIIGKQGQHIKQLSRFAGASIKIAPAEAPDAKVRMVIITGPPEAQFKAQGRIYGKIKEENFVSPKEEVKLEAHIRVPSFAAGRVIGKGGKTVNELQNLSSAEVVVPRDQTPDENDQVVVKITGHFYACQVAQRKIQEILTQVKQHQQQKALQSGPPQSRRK

Tests used:
[1] = molecular target: Flag-tagged casein kinase 1 delta isoform CK1δ2 (human (cDNA from 293T cells)) (UniProt P48730); test: co-IP; Flag-tagged CK1 isoform and Myc-tagged SHFL co-expressed in 293T cells, 48 h; Benzonase added to the lysates; anti-Flag affinity gel; western analysis
[2] = molecular target: Flag-tagged casein kinase 1 epsilon (CK1ε) (human (cDNA from 293T cells)) (UniProt P49674); test: as above
Flag-tagged SHFL-T250E = Flag-tagged SHFL-T250E (UniProt Q9NUL5); test: co-IP; Flag-tagged SHFL variant transiently expressed in 293T cells; lysed in Co-IP buffer; anti-Flag M2 affinity gel; endogenous partners detected by western blotting with specific antibodies
Flag-tagged SHFL = Flag-tagged SHFL (UniProt Q9NUL5); test: as above

| Substance | binding [1] | binding [2] | binding (Flag-tagged SHFL-T250E) | binding (Flag-tagged SHFL) |
| --- | --- | --- | --- | --- |
| Myc-tagged SHFL (pLPCX-SHFL-Myc) (from UniProt Q9NUL5 1-291) | binds | binds |  |  |
| endogenous IGF2BP2 (from UniProt Q9Y6M1 1-599) |  |  | binds | binds |
| endogenous IGF2BP3 (from UniProt O00425 1-579) |  |  | binds | binds |
| endogenous casein kinase 1 epsilon (CK1ε) (from UniProt P49674 1-416) (enzyme) |  |  |  | binds |
